The values that follow come from PubChem BioAssay AID2685 (National Center for Advancing Translational Sciences (NCATS), 2010).

The assay is described as follows: qHTS Assay for Lipid Storage Modulators in Drosophila S3 Cells.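 As to cell number change: cells counted by Cell Tracker Red CMTPX staining in the red channel.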 The note with it: BODIPY lipid droplet fluorescence, 18-24 h; for cell number change: measured here: cell count max response, cells fed with added oleic acid. The method in brief:
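Drosophila S3 cells got compounds at several concentrations plus oleic acid (400 uM solution). Laser-scanning cytometry with 488 nm excitation read lipid droplets at 500-530 nm and cells at 575-640 nm. Percent activity was relative to 20 uM Triacsin C.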
(qHTS replaces the single test concentration by a dilution series.)

[1] abbreviates: measured here: cell number channel AC50, cells fed with added oleic acid.
Setting [2] is: measured here: lipid fluorescence (Fed channel) AC50, cells fed with added oleic acid.

The list shows a part of the results. These are further read-outs of the screen, such as a control signal, another cell line or another target. No call is given for them. Compounds called inactive in the main read-out are mostly missing here. Potencies come from curve fits of mixed quality, noted in brackets.

Take `CSCC[C@H](NC(=O)[C@H](Cc1ccccc1)n1c(=O)[nH]c2ccccc2c1=O)C(=O)N1CCC[C@@H]1C(=O)O`: the cell number change was determined as 40.5%. The concentration at half-maximal activity (AC50) under setting [1] is 29.1 µM [rising, single point]. The AC50 under setting [2] is 29.1 µM [rising, single point].

Regarding `CCOc1cc(O)c(-c2[nH]ncc2-c2nc(C)cs2)cc1CC`, the cell number change was -37.8%. Under setting [1], the AC50 is 29.1 µM [falling, single point]. Besides, the AC50 under setting [2] is 1.84 µM [falling, partial curve].

Regarding `Cc1cc(C)n(CCCNC(=O)CCNS(=O)(=O)c2ccccc2C(F)(F)F)n1`, the cell number change came out at 3.51%.

For the molecule `Cc1cc(NC(=O)c2ccc(-c3ccccc3F)o2)no1`, the cell number change is 38.7%.

Consider `Cc1cc(C)c(NS(=O)(=O)c2ccc(NC(=O)/C=C/C(=O)O)cc2)c(C)c1`, for which the cell number change was determined as 37%. Moreover, the AC50 under setting [1] was 20.6 µM [rising, single point].

Regarding `O=C(COC(=O)c1cccc(S(=O)(=O)N2CCCCCC2)c1)Nc1ccccc1C(F)(F)F`, the cell number change was -1.55%. For the same molecule, the AC50 under setting [2] is 6.51 µM [rising, single point].

For the molecule `Cc1ccnc(NC(=O)c2ccc(Cl)c(NC(=O)CCc3ccccc3)c2)c1`, the cell number change was -8.6%. Besides, the AC50 under setting [2] was 0.651 µM [rising, single point].

With `Cc1ccc(OC(=O)c2cccc(C(=O)Oc3ccc(C)cc3)n2)cc1`, the cell number change was found to be 60.9%. Besides, under setting [1], the AC50 is 29.1 µM [rising, single point]. Also, under setting [2], the AC50 was 3.66 µM [falling, single point].

As for `CCCC(=O)c1c[nH]c(C(=O)NCc2ccco2)c1`, the cell number change was determined as 60%. Under setting [1], the AC50 was 13 µM [rising, partial curve, poor fit].

`Cn1cccc1C(=O)OCc1cc(Cl)cc2c1OCOC2`: the cell number change amounted to 74.7%. In addition, the AC50 under setting [1] was 20.6 µM [rising, single point]. Moreover, under setting [2], the AC50 is 5.17 µM [falling, single point].

`CCOc1ccc(Cn2nnc(-c3ccc(S(C)(=O)=O)cc3)n2)cc1OCC`: the cell number change is -18.5%. Besides, under setting [2], the AC50 was 0.0291 µM [rising, full curve].

With `CCC(=O)c1c[nH]c(C(=O)NCc2ccco2)c1`, the cell number change is 69.6%. Besides, the AC50 under setting [1] is 25.9 µM [rising, single point]. Also, under setting [2], the AC50 is 20.6 µM [rising, single point].

As to `NC(=O)c1ccsc1NC(=O)CCS(=O)(=O)c1ccc(F)cc1`, the cell number change was 69.1%. Also, the AC50 under setting [1] was 20.6 µM [rising, single point].

Turning to `CC(C)(C)n1ncc(Oc2ccccc2[N+](=O)[O-])c(Cl)c1=O`, the cell number change was -33.2%. Under setting [1], the AC50 is 29.1 µM [falling, single point]. Further, under setting [2], the AC50 is 23.1 µM [falling, single point].

In the case of `COC(=O)c1cc(Cl)c(NC(=O)Cc2ccccc2)cc1OC`, the cell number change was 30.6%. Besides, under setting [1], the AC50 is 0.651 µM [rising, full curve].

Regarding `Cc1c(Br)c([N+](=O)[O-])nn1CC(=O)N1CCCc2ccccc21`, the cell number change came out at 9.77%. The AC50 under setting [1] was 3.26 µM [rising, single point].

Regarding `COc1ccc(C(=O)NC(=S)Nc2ccc3oc(=O)ccc3c2)cc1[N+](=O)[O-]`, the cell number change is 1.08%. Under setting [2], the AC50 was 5.17 µM [falling, single point].

As to `COc1ccc(CCNC(=O)c2ccccc2-c2ccccc2C(=O)O)cc1OC`, the cell number change was 26.6%. For the same molecule, under setting [2], the AC50 was 0.164 µM [rising, full curve, poor fit].

With `O=C([O-])c1cc(-c2ccccc2)cc(-c2ccccc2)[n+]1Cc1ccccc1`, the cell number change is -52.6%. In addition, under setting [1], the AC50 is 29.1 µM [falling, single point]. Under setting [2], the AC50 is 29.1 µM [falling, single point].

Turning to `CCCN(CCC)S(=O)(=O)c1ccc(NC(=O)COc2ccccc2)cc1`, the cell number change was found to be 0.817%. Moreover, under setting [2], the AC50 was 29.1 µM [falling, single point].

On to `Cc1cc(C(=O)N2CCN(S(=O)(=O)c3ccc(C)c(C)c3)CC2)no1`, for which the cell number change is -12.5%.

Consider `O=C(NC(Cc1c[nH]c2ccccc12)C(=O)N/N=C/c1cccnc1)c1cccs1` (configuration not stated), for which the cell number change came out at 2.77%. Further, under setting [1], the AC50 was 6.51 µM [falling, single point].

Regarding `COc1cc(/C(C)=C/c2ccccc2)c2c(c1)oc1ccccc12`, the cell number change was found to be 19.1%. For the same molecule, the AC50 under setting [2] was 9.2 µM [rising, partial curve].

For the molecule `CC1CCC(NC(=O)COC(=O)c2ccc3ncsc3c2)CC1` (configuration not stated), the cell number change amounted to 26.7%. For the same molecule, under setting [2], the AC50 was 0.411 µM [rising, full curve, poor fit].

Regarding `O=C(NCCc1ccc(Cl)cc1)C1CCN(C(=O)c2ccc(F)cc2)CC1`, the cell number change is 21.8%. Besides, the AC50 under setting [2] was 13 µM [rising, partial curve, poor fit].

In the case of `COc1ccccc1NC(=O)CSc1nc2ccccc2c(=O)n1CCNC(C)=O`, the cell number change was -25.9%. In addition, under setting [2], the AC50 was 0.103 µM [rising, full curve, poor fit].

Turning to `C=CCn1c(SCC(=O)N(C)C2CCS(=O)(=O)C2)nc2ccccc2c1=O` (configuration not stated), the cell number change is 115%.

Consider `O=C(Nc1ccc2c(c1)OCCO2)c1cccc(S(=O)(=O)N2CCCCC2)c1`, for which the cell number change came to 5.43%. Also, under setting [1], the AC50 was 1.84 µM [rising, partial curve]. The AC50 under setting [2] was 18.4 µM [rising, partial curve].

Regarding `O=C(NCCCN1CCOCC1)C(=O)NCC1OCCCN1S(=O)(=O)c1cc(F)ccc1F` (configuration not stated), the cell number change came to 11.8%. Further, under setting [2], the AC50 is 2.31 µM [falling, single point].

On to `O=C(O)c1nc(N2CCCC2)ncc1Cl`, for which the cell number change is -60%. Further, the AC50 under setting [1] was 20.6 µM [falling, partial curve].

Regarding `Cc1c(C=O)c2ccccc2n1CCOc1ccccc1`, the cell number change was -23.6%. For the same molecule, the AC50 under setting [2] was 29.1 µM [falling, single point].

For the molecule `CCOC(=O)N1CCC2(CC1)C(C#N)=C(N)Oc1c2sc2nc(C)cc(C)c12`, the cell number change was 4.61%. Further, under setting [2], the AC50 was 3.26 µM [rising, full curve, poor fit].

Regarding `CCOc1ccc(NC(=O)CSc2nc(=O)n(CCCN3CCOCC3)c3c2CCC3)cc1`, the cell number change is -0.321%.

For `COc1cc(NC(=O)CNC(=O)Cn2ccc3ccccc3c2=O)cc(OC)c1OC`, the cell number change was determined as 25.7%.

For the molecule `CC1(C)CC(=O)c2c(noc2-c2ccccc2)C1`, the cell number change was -37%. Also, under setting [1], the AC50 is 16.4 µM [falling, partial curve]. Also, under setting [2], the AC50 was 14.6 µM [falling, partial curve].

Regarding `Cc1ccc(C)c(S(=O)(=O)N2CCN(C(=O)CCc3nc4ccccc4c(=O)[nH]3)CC2)c1`, the cell number change amounted to 77.1%. For the same molecule, the AC50 under setting [1] is 29.1 µM [rising, single point].

`COC(=O)CCS(=O)(=O)c1ccc(Cl)c(Cl)c1`: the cell number change is -15.9%.

For the molecule `COCCCNC(=O)CCn1c(=O)c2ccccc2n(CC(=O)Nc2cc(Cl)ccc2C)c1=O`, the cell number change amounted to 12.1%. Also, the AC50 under setting [2] is 29.1 µM [rising, partial curve, poor fit].

On to `NC(=O)COC(=O)c1cccc2c1-c1ccccc1C2=O`, for which the cell number change was -9.08%. The AC50 under setting [2] was 0.00731 µM [falling, full curve, poor fit].

In the case of `CC(C)CNS(=O)(=O)c1ccc(CCC(=O)N2CCN(c3ccccc3)CC2)cc1`, the AC50 under setting [2] was 3.66 µM [rising, partial curve].

Regarding `CC1CCCC(C)N1C(=O)Cc1ccccc1` (configuration not stated), the cell number change was 19.3%. For the same molecule, under setting [2], the AC50 is 1.16 µM [falling, full curve].

Consider `CCOC(=O)N1CCN(C(=O)Nc2sc3nc4n(c(=O)c3c2C)CCC(C)CC4)CC1` (configuration not stated), for which the cell number change was -15.5%.

Regarding `CCC(COC)NC(=O)c1ccc(OC)c(OC2CCN(C(C)=O)CC2)c1` (configuration not stated), the cell number change was determined as 7.42%. Further, the AC50 under setting [2] is 29.1 µM [rising, single point].

For `COC(=O)c1cccc(N(C(=O)c2cnccn2)C(C(=O)NC2CCCCC2)c2cn(C)nc2C)c1` (configuration not stated), the AC50 was 0.13 µM [falling, full curve] under setting [1] and 0.146 µM [falling, full curve] under setting [2].

For `C=CCN1C(=O)c2cccc3c(Br)ccc(c23)C1=O`, the AC50 under setting [2] is 0.13 µM [rising, full curve, poor fit].

Consider `Cc1occc1-c1nc(-c2ccncc2)no1`, for which the half-maximal activity concentration (AC50) by setting is: under setting [1], 2.59 µM [rising, partial curve]; under setting [2], 6.51 µM [rising, single point].

Consider `COc1ccccc1OCCCCN1CCC(C)CC1`, for which the cell number change is -5.56%.

`CC(=O)OC1CC(C)(C)N(OC(=O)c2ccccc2)C(C)(C)C1`: the cell number change is -24%. In addition, the AC50 under setting [2] was 14.6 µM [falling, partial curve].

As to `COc1ccc(N2CC(C(=O)Nc3ccc(S(=O)(=O)N4CCCCC4)cc3)CC2=O)cc1` (configuration not stated), the cell number change was -6.03%. The AC50 under setting [2] is 18.4 µM [falling, partial curve, poor fit].

Consider `COc1ccc(/C=N/Nc2ccc(C(F)(F)F)cc2[N+](=O)[O-])cc1`, for which the cell number change was -28.4%. For the same molecule, the AC50 under setting [2] is 29.1 µM [falling, single point].

As for `Cc1cc(C)cc(NC(=S)N2CCN(S(C)(=O)=O)CC2)c1`, the cell number change is -32.2%. Besides, the AC50 under setting [2] was 7.31 µM [rising, partial curve].

For `Cc1ccc(Cl)cc1NC(=O)CSc1sc2c(O)cc(=O)[nH]c2c1C#N`, the cell number change came to 15.7%. Moreover, under setting [1], the AC50 was 7.31 µM [rising, partial curve, poor fit].

Take `COc1ccc(Cn2c(O)c(C=Nc3ccc(C)cc3)c3ccccc3c2=O)cc1`: the cell number change was -26%. Also, the AC50 under setting [2] was 6.51 µM [falling, single point].

In the case of `CN(CC(=O)NC1CCCCCC1)S(=O)(=O)c1ccc2c(c1)n(C)c(=O)c(=O)n2C`, the cell number change was -9.96%. The AC50 under setting [2] is 1.64 µM [falling, full curve, poor fit].

With `CC(NC(=O)C(C)(C)C)c1nc2ccccc2n1C` (configuration not stated), the cell number change is -156%. Under setting [1], the AC50 was 23.1 µM [falling, single point]. The AC50 under setting [2] is 29.1 µM [falling, partial curve].

With `O=C(COc1ccc(Br)cc1)Nc1ccc(N2CCOCC2)cc1N1CCOCC1`, the cell number change was 5.57%. Further, the AC50 under setting [2] is 3.26 µM [falling, single point].

As for `COC(=O)CSc1nc(N)c(NC(=O)c2ccc(OC)c(OC)c2)c(=O)[nH]1`, the cell number change was -34.3%. For the same molecule, the AC50 under setting [1] is 2.91 µM [falling, full curve, poor fit]. Moreover, the AC50 under setting [2] was 2.91 µM [falling, full curve].

With `O=C(O)c1ccccc1NS(=O)(=O)c1ccccc1C(F)(F)F`, the cell number change was -13.8%.

For the molecule `C=CCC1(CC=C)CCCN1Cc1nc(COc2ccccc2)no1`, the cell number change was determined as 2.04%. Further, under setting [2], the AC50 is 0.13 µM [falling, partial curve, poor fit].

What is called AC50 is the concentration at which the activity in the assay is half-maximal. Low values mean greater potency, high ones weaker potency.
